Test results from patent publication US8288319B2, “4-(3-alkylthiobenzoyl)pyrazoles and their use as herbicides” (Bayer Cropscience AG, priority 2009, dated 2012).
Some entries share one result that the patent states for a list of compounds.

Assays:
Assay in all cases: Pre-emergence herbicidal action against harmful plants
Type in all cases: in vivo
Settings in all cases: application rate 80 g/ha, visual assessment after 3 weeks vs untreated controls
Amaranthus retroflexus = test system: Amaranthus retroflexus
Echinochloa crus galli = test system: Echinochloa crus galli
Stellaria media = test system: Stellaria media

Measured: herbicidal activity in percent (%)

CCn1ncc(C(=O)c2ccc(C(F)(F)F)c(S(C)(=O)=O)c2OC)c1O [2-21, 1-ethyl-5-hydroxy-4-(2-methoxy-3-methylsulfonyl-4-(trifluoromethyl)benzoyl)pyrazole]
at least 90%: all assays above
